Values of other authors, collected in patent publication US9943518B2, “Inhibitors of phosphodiesterase type 5A for reducing skeletal muscle fatigue, edema, and damage in a patient having muscle fatigue due to increased age or exercise” (University of Iowa Research Foundation, priority 2008, dated 2018).
For at least one compound, name, drawing or mass did not settle the structure.

Test system: mice
Details: Tsunoda et al. 2001; cited from earlier work

In the case of `Nc1cc(N2CCCCC2)nc(N)[n+]1[O-]` [minoxidil], the catecholamines in bloodstream is listed as “have catecholamines released into their bloodstream”.
